Measurements reported in PubChem BioAssay AID2685 (National Center for Advancing Translational Sciences (NCATS), 2010).
The other results are listed elsewhere or left out. Shown are side measurements of this screen, not its main read-out; they come without a call. Most of these compounds were active or inconclusive in the main read-out, so they are no random draw. Potencies come from curve fits of mixed quality, noted in brackets.

Assay: qHTS Assay for Lipid Storage Modulators in Drosophila S3 Cells;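 for cell number change: cells counted by Cell Tracker Red CMTPX staining in the red channel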
Details: BODIPY lipid droplet fluorescence, 18-24 h; for cell number change: measured here: cell count max response, cells fed with added oleic acid
Method in brief: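 Laser-scanning cytometry quantifies lipid droplet accumulation (500–530 nm total intensity; droplet/cell object ratio) in oleic acid-fed (400 uM added) Drosophila S3 cells treated with a concentration series. 20 uM Triacsin C defined 100% inhibition.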

[1] = measured here: cell number channel AC50, cells fed with added oleic acid
[2] = measured here: lipid fluorescence (Fed channel) AC50, cells fed with added oleic acid

SMILES	cell number change	AC50 [1]	AC50 [2]
CS(=O)(=O)/C(C#N)=C\c1cnc(S(=O)(=O)c2ccccc2)s1	-72.1%	5.8 µM [falling, full curve]	5.17 µM [falling, full curve]
CCCCNC(=O)CSc1nc2ccc(Nc3nc(N4CCOCC4)nc(N4CCOCC4)n3)cc2s1	5.48%		0.231 µM [rising, full curve, poor fit]
Cc1cc(C)c(C)c(S(=O)(=O)NC(C)C(=O)O)c1C (configuration not stated)	-24.1%		25.9 µM [falling, single point]
NC(=O)COC(=O)c1c2c(nc3ccccc13)CCCCC2		0.00517 µM [rising, full curve, poor fit]	0.146 µM [rising, partial curve, poor fit]
Cc1c(C)c2ccc(OCC(=O)N[C@@H](Cc3ccccc3)C(=O)O)cc2oc1=O	33.8%	29.1 µM [rising, single point]	29.1 µM [rising, single point]
C=CCNC(=S)NNC(=O)COc1ccc2cc(Br)ccc2c1	-22.2%		0.146 µM [falling, partial curve]
O=C(Nc1cccc(C(F)(F)F)c1)Oc1ccc(Cl)c2cccnc12			4.11 µM [falling, full curve]
Cc1ccccc1C(=O)OC(C)C(=O)NCc1ccc2c(c1)OCO2 (configuration not stated)	-1.93%		5.17 µM [rising, partial curve, poor fit]
CC(NC(=O)/C(C#N)=C/c1ccc(N2CCOCC2)cc1)c1ccccc1 (configuration not stated)	-19.8%		0.58 µM [rising, single point]
O=c1[nH]c(SCc2ccccc2Cl)nc2c1CCC2	-163%	23.1 µM [falling, partial curve]	0.116 µM [falling, full curve, poor fit]
Cn1ncc2c(NNC(=O)Cc3cccc4ccccc34)ncnc21	-14.7%		4.11 µM [falling, full curve, poor fit]
CC(=O)NC(CC(=O)NCCCn1ccc2ccccc21)c1ccccc1 (configuration not stated)	8.57%	0.326 µM [rising, partial curve, poor fit]	
O=C(COC(=O)/C=C/c1cccs1)NC1CC1	14%		
O=C(Nc1c(C(=O)N2CCOCC2)cnn1-c1ccccc1)c1ccccc1F	6.58%		
Cc1ccc(/C=N/NC(=O)c2nnn(-c3nonc3N)c2CN(C)C2CCCCC2)cc1	2.67%		29.1 µM [falling, single point]
Cn1cc(S(=O)(=O)NCCc2ccccc2)c(=O)n(C)c1=O	-23.9%		16.4 µM [falling, single point]

Single records, from the list above.
O=C(COC(=O)/C=C/c1cccs1)NC1CC1 reads cell number change: 14%
CCCCNC(=O)CSc1nc2ccc(Nc3nc(N4CCOCC4)nc(N4CCOCC4)n3)cc2s1 reads cell number change: 5.48%; AC50 [2]: 0.231 µM [rising, full curve, poor fit]
